# Measured values from PubChem BioAssay AID1347423 (Functional Genomics Laboratory (NCATS/FGL), 2020).
# Screen size: about 52,000 sequences; about 210 (0.4%) were called active.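 Rule for the calls: active = gene whose silencing raises cell survival under the drug, median off-target-corrected z-score across its silencing RNAs 2 or more; inactive = the rest.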 Some of the results follow.
# Experiment: Resistance to Poly (ADP-Ribose) Polymerase inhibitor: Gene Identification via Genome-wide siRNA Screen
# Details: mouse BRCA2 R2336H ES cells, olaparib, CellTiter-Glo viability; active compounds read high
# Method in brief: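 Mouse BRCA2 R2336H ES cells were reverse-transfected with siRNA (20 nM final), treated at 48 h with 500 nM olaparib, and read by CellTiter-Glo after 72 h. Scores: MAD-based z per siRNA, median per gene, seed off-target correction.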
row,Sequence,z-score
1,GGCGGUCAAUGACCUCAUATT against AU018778,inactive: -1.75
2,GGAUGAGGAUGGCUAUAAGTT against AI790326,inactive: 0.272
3,GGACGAAUUUCUUACAGUATT against 4933412H03Rik,inactive: -1.61
4,CCAAAAACCACAGUCCACCTT against Dnajb12,inactive: 1.38
5,CCACUCAACUAGAUUAUUGTT against 2310040A13Rik,inactive: -0.321
6,GGAGAUCCUCAUUUGUGUGTT against Ftmt,inactive: -0.3
7,GGAUCAUGGAUGUAUAAAGTT against B430119L13Rik,inactive: -0.0309
8,GAGCCAAAUUAGCAGCUUGTT against Rln3,inactive: 0.201
9,GGUCAGAAAGACAAUCGCCTT against Nptx1,inactive: 0.477
10,CCGAAAAGUGAUAUGCUUUTT against Akap4,inactive: 0.074
11,GGCAAAGGAUCUCAACGGATT against Msh6,inactive: -0.917
12,GCCUAGACCUAAGCAUAGCTT against Prpmp5,inactive: 0.671
13,CGUAUGGAGAUACCACACATT against Hpd,inactive: -0.103
14,GGUGACCACACCUUCAAAGTT against D930040M24Rik,inactive: 1.65
15,CCGUCAUCUGGAGAGAAACTT against Dtx3l,inactive: -0.691
16,GGCUGUGUAAGGAAGGGCUTT against Rgmc,inactive: -0.357
17,GGAGAUAGGAGCGAUUGCUTT against Dpys,inactive: -1.27
18,GGAGAUCUACUUGAAGUUATT against Jarid1d,inactive: 0.231
19,GGACGAUGUCUUAUAGAAGTT against 2700059L22Rik,inactive: 0.467
20,GGAACUUUGUCAUCAGUGGTT against 9130423L19Rik,inactive: 0.409
21,GGAGCUAGGCUGCUCUAUUTT against Serpina9,inactive: 0.0864
22,CCGGGAAAGAACUCCUAAGTT against Wnt8b,inactive: -0.116

# Two entries picked at random from those above:
row,Sequence,z-score
6,GGAGAUCCUCAUUUGUGUGTT against Ftmt,inactive: -0.3
12,GCCUAGACCUAAGCAUAGCTT against Prpmp5,inactive: 0.671

# (cont.)

row,Sequence,z-score
1,GGUCAAUGUACUACUUCUUTT against Olfr659,inactive: 1.29
2,UCCAUUUAGUUGGUGGAGUTT against Olfr1303,inactive: 0.245
3,GGAUAUGAAAGUUCUUGAUTT against Akr1c21,inactive: -0.00542
4,GGGAAAAUGGCUUAACCGUTT against Siglec10,inactive: -0.341
5,GGUACUGGAACAAAAGAAATT against Stk38l,inactive: -0.514
6,GGCUAUUUAUAAGUCCAGUTT against Vdp,inactive: -0.385
7,CGGAGUUAACAAGAAGUGATT against Loxl4,inactive: -0.163
8,CGACAACCACUUCAACUAUTT against Chn2,inactive: -0.263
9,GGAGAAAGCAGCAAGUACATT against Olig3,inactive: 0.401
10,GGAAGAAGUAGCUAAAAACTT against Entpd4,inactive: 2.15
11,GCAUCGCUAAGUCCGUCUUTT against Aqp4,inactive: 2.41
12,CCUCAUGACCCGAAAAGAGTT against 4930424G05Rik,inactive: -1.33
13,CGUGUGGAUUUUAAUAGAATT against AV249152,inactive: 0.125
14,GGAAGGCACUCUACUAGGATT against Sfrs14,inactive: 0.215
15,GGAACUGAAUCCAGAAAUGTT against Ldh2,inactive: -0.377
16,GGACGGAUCUUGUAAAUACTT against Ctsl,inactive: -0.367
17,GGUUCUGUGCAAUUUUUAGTT against Dgcr2,inactive: 0.344
18,GCUUUGUGUGUUGGUCUCGTT against Aup1,inactive: -2.33
19,GGGUUUGCUUUUGUUGAGUTT against Ppie,inactive: -1.09
20,CCUAUGAAGCCAGUAUCCATT against C1r,inactive: 0.189
21,CGUGUUAGAAUAAAAACACTT against Acaa2,inactive: -0.232
22,CCAGAUAGGUAAAAAACAATT against Acta2,inactive: 0.265

row,Sequence,z-score
1,GCAGGUAAAGGCUCUUAUUTT against Rcbtb1,inactive: -0.0395
2,GGAAGAAAAAACCUUCUGGTT against 1700112P19Rik,inactive: -0.0914
3,GGUACCCAUAUGCAGAGGUTT against A830039N20Rik,inactive: -0.45
4,CCACUUGUAGUUACAAAACTT against Odag,inactive: -0.673
5,GCUUGUUCCGGGAAUUAUUTT against 1200009B18Rik,inactive: 0.192
6,GGGUUUACAAACUACACAUTT against E130112H22Rik,inactive: -0.547
7,GGUUUCCAGUGCAUACUUUTT against Taf1b,inactive: -0.487
8,GGCUUUCUUUGCCAUGACCTT against Copg,inactive: -0.491
9,GGAAAAUCCCUUGGUGAAATT against Slc5a11,inactive: 2.74
10,GGAUCCUCACCAAGAUUACTT against Mrps22,inactive: 1.17
11,GGUCAUUAGUUAUUCCUACTT against Olfr600,inactive: -0.776
12,GGUCACACUUUCUUUGGAATT against D8Ertd325e,inactive: -0.243
13,CCCUGGCAAAUAUCACUGCTT against Dapk2,inactive: 0.678
14,GGGUGUACAUUGAAAUUAATT against Epha4,inactive: 1.05
15,GGCUGUCAUUGAGUUUGAGTT against Klrc2,inactive: 0.947
16,CCUACGCUAUGCCAUAGACTT against Apobec3,inactive: 1.37
17,GGGAUAGGAAACAUACCAATT against Ptk6,inactive: -0.561
18,GGUUGAUAAAGUUUGAGUGTT against 5730410E15Rik,inactive: 0.52
19,CCUAAACGUGCACAUUUUATT against 6330512M04Rik,inactive: 0.367
20,CCUUCUAAACACUUGACUUTT against Ugt2b5,inactive: 0.523
21,GGAAUUUGUCAAGUUGUAGTT against Pou4f2,inactive: -0.11
22,GGGCUUUCUUUAUUUUGUGTT against 9230112J07Rik,inactive: -0.593

# In another format: results already given
row	Sequence	z-score
2	GGAAGAAAAAACCUUCUGGTT against 1700112P19Rik	inactive: -0.0914
3	GGUACCCAUAUGCAGAGGUTT against A830039N20Rik	inactive: -0.45
4	CCACUUGUAGUUACAAAACTT against Odag	inactive: -0.673
